From the supplement of paper PMC4604168 (melanoma cell lines)
The list shows a part of the results. Single values are uncertain, as repeats are few or missing.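 The apoptosis fraction was the count of cleaved-PARP antibody-stained nuclei relative to all DNA-stained nuclei, imaged in 1,536-well plates. Screening doses were set so most cells survived, and baseline and induced cleaved-PARP levels vary greatly across cell lines.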

Assays:
Assay in all cases: cleaved PARP positive nuclei fraction relative to DMSO control; melanoma cells; higher = more apoptosis
Details in all cases: library dose: low library concentration; 72 h
COLO792 = tested on: COLO792
COLO800 = tested on: COLO800
COLO829 = tested on: COLO829
G361 = tested on: G361
IPC-298 = tested on: IPC-298
IST-MEL1 = tested on: IST-MEL1
LB2518-MEL = tested on: LB2518-MEL
LOXIMVI = tested on: LOXIMVI
MZ2-MEL = tested on: MZ2-MEL
MeWo = tested on: MeWo
RPMI7951 = tested on: RPMI7951
RVH-421 = tested on: RVH-421
SkMel28 = tested on: SkMel28
SkMel2 = tested on: SkMel2
SkMel30 = tested on: SkMel30
SkMel5 = tested on: SkMel5
UACC257 = tested on: UACC257
UACC62 = tested on: UACC62

Row | Structure (SMILES) | cleaved PARP positive nuclei fraction (COLO792) [%] | cleaved PARP positive nuclei fraction (COLO800) [%] | cleaved PARP positive nuclei fraction (COLO829) [%] | cleaved PARP positive nuclei fraction (G361) [%] | cleaved PARP positive nuclei fraction (IPC-298) [%] | cleaved PARP positive nuclei fraction (IST-MEL1) [%] | cleaved PARP positive nuclei fraction (LB2518-MEL) [%] | cleaved PARP positive nuclei fraction (LOXIMVI) [%] | cleaved PARP positive nuclei fraction (MZ2-MEL) [%] | cleaved PARP positive nuclei fraction (MeWo) [%] | cleaved PARP positive nuclei fraction (RPMI7951) [%] | cleaved PARP positive nuclei fraction (RVH-421) [%] | cleaved PARP positive nuclei fraction (SkMel28) [%] | cleaved PARP positive nuclei fraction (SkMel2) [%] | cleaved PARP positive nuclei fraction (SkMel30) [%] | cleaved PARP positive nuclei fraction (SkMel5) [%] | cleaved PARP positive nuclei fraction (UACC257) [%] | cleaved PARP positive nuclei fraction (UACC62) [%]
1 | COc1cc([C@@H]2c3cc4c(cc3[C@@H](O[C@@H]3O[C@@H]5CO[C@@H](C)O[C@H]5[C@H](O)[C@H]3O)[C@H]3COC(=O)[C@H]23)OCO4)cc(OC)c1O [etoposide] + COc1cc2ncnc(Nc3ccc(Oc4ccccc4)cc3)c2cc1OC [SrcI1] (first compound 0.02 µM, partner dose 2 µM) | 78.5 | 103 | 72.4 | 14.6 | 68.7 | 90.8 | 69.6 | 63.2 | 135 | 51 | 194 | 96 | 182 | 109 | 128 | 74 | 135 | 286
2 | O=C(/C=C/c1cccnc1)NCCCCC1CCN(C(=O)c2ccccc2)CC1 + N#Cc1c(O)c2c(-c3ccc(-c4ccccc4O)cc3)csc2[nH]c1=O [A769662] (first compound 0.01 µM, partner dose 2 µM) | 273 | 221 | 146 | 4220 | 115 | 42.4 | 309 | 37.2 | 704 | 129 | 119 | 108 | 124 | 893 | 216 | 76.3 | 128 | 108
3 | CCCCCCCCCCCCCCCCCCOP(=O)([O-])OC1CC[N+](C)(C)CC1 [Perifosine] + Cn1cc(/C=C2\C(=O)Nc3cccnc32)c2ccccc21 [GW441756] (first compound 0.4 µM, partner dose 0.4 µM) | 116 | 80.2 | 111 | 135 | 25.8 | 113 | 38.3 | 23.9 | 90.8 | 106 | 122 | 128 | 95.7 | 28.1 | 44.8 | 85.5 | 285 | 48.6
4 | N#CC[C@H](C1CCCC1)n1cc(-c2ncnc3[nH]ccc23)cn1 [ruxolitinib] + COc1ccc(-c2ccc3c(N4CCOCC4)nc(N4C[C@@H](C)O[C@@H](C)C4)nc3n2)cc1CO [KU0063794] (first compound 1 µM, partner dose 0.02 µM) | 65 | 75.7 | 73.2 | 91.4 | 165 | 91.4 | 41.4 | 351 | 204 | 322 | 164 | 162 | 177 | 75.2 | 42.6 | 71.5 | 222 | 70.6
5 | CC[C@]1(O)C[C@H]2CN(CCc3c([nH]c4ccccc34)[C@@](C(=O)OC)(c3cc4c(cc3OC)N(C=O)[C@H]3[C@@](O)(C(=O)OC)[C@H](OC(C)=O)[C@]5(CC)C=CCN6CC[C@]43[C@@H]65)C2)C1 [vincristine] + N#Cc1c(O)c2c(-c3ccc(-c4ccccc4O)cc3)csc2[nH]c1=O [A769662] (first compound 0.0001 µM, partner dose 2 µM) | 115 | 55.4 | 157 | 110 | 36.3 | 85.5 | 84.5 | 185 | 139 | 206 | 115 | 176 | 147 | 87.7 | 99.8 | 91.9 | 96.4 | 133
6 | Cc1ccc(Nc2nccc(N(C)c3ccc4c(C)n(C)nc4c3)n2)cc1S(N)(=O)=O [Pazopanib] + O=S(=O)(c1ccccc1)N(CC(F)(F)F)c1ccc(C(O)(C(F)(F)F)C(F)(F)F)cc1 [T0901317] (first compound 0.4 µM, partner dose 1.4 µM) | 112 | 73.1 | 122 | 74.1 | 172 | 140 | 62.9 | 95.5 | 31.3 | 87.4 | 99.9 | 111 | 198 | 102 | 46.8 | 223 | 121 | 209
7 | O=c1[nH]nc(Sc2ncc([N+](=O)[O-])s2)n1-c1ccc2c(c1)OCCO2 + O=c1cc(-c2cccc3c2Sc2ccccc2S3)oc(N2CCOCC2)c1 [KU55933] (first compound 0.2 µM, partner dose 1 µM) | 98.9 | 116 | 78.4 | 86.7 | 43.9 | 97.5 | 53.4 | 90.9 | 38.4 | 57.8 | 48.8 | 73 | 138 | 37.3 | 68.3 | 76.2 | 57.4 | 176
8 | O=C(Nc1cc(C(F)(F)F)cc(C(F)(F)F)c1)c1cc(Cl)ccc1O + COc1cc2ncnc(Nc3ccc(Oc4ccccc4)cc3)c2cc1OC [SrcI1] (first compound 0.016 µM, partner dose 2 µM) | 141 | 25.7 | 111 | 73.9 | 165 | 45.8 | 93.3 | 98.1 | 57.6 | 174 | 120 | 42.5 | 39.7 | 86.2 | 25.8 | 87.7 | 130 | 73.1
9 | Cc1ccc(Nc2nccc(N(C)c3ccc4c(C)n(C)nc4c3)n2)cc1S(N)(=O)=O [Pazopanib] + CCN(CC)CCCCNc1ncc2cc(-c3cc(OC)cc(OC)c3)c(NC(=O)NC(C)(C)C)nc2n1 [PD173074] (first compound 0.4 µM, partner dose 0.1 µM) | 155 | 77.3 | 78.2 | 112 | 112 | 232 | 61.2 | 117 | 105 | 72.2 | 77.1 | 81.8 | 178 | 95.9 | 70.9 | 93.8 | 159 | 59.6
10 | N#CC[C@H](C1CCCC1)n1cc(-c2ncnc3[nH]ccc23)cn1 [ruxolitinib] + Cc1cc([N+](=O)[O-])ccc1NS(=O)(=O)c1cc(Cl)ccc1Cl [FH535] (first compound 1 µM, partner dose 1 µM) | 93.3 | 14.8 | 70.3 | 57.5 | 130 | 162 | 149 | 250 | 80.7 | 56.8 | 32.3 | 93.2 | 148 | 43.8 | 45.9 | 118 | 87 | 153

Whole records as entered above. Values in the order: cleaved PARP positive nuclei fraction (COLO792) [%]	cleaved PARP positive nuclei fraction (COLO800) [%]	cleaved PARP positive nuclei fraction (COLO829) [%]	cleaved PARP positive nuclei fraction (G361) [%]	cleaved PARP positive nuclei fraction (IPC-298) [%]	cleaved PARP positive nuclei fraction (IST-MEL1) [%]	cleaved PARP positive nuclei fraction (LB2518-MEL) [%]	cleaved PARP positive nuclei fraction (LOXIMVI) [%]	cleaved PARP positive nuclei fraction (MZ2-MEL) [%]	cleaved PARP positive nuclei fraction (MeWo) [%]	cleaved PARP positive nuclei fraction (RPMI7951) [%]	cleaved PARP positive nuclei fraction (RVH-421) [%]	cleaved PARP positive nuclei fraction (SkMel28) [%]	cleaved PARP positive nuclei fraction (SkMel2) [%]	cleaved PARP positive nuclei fraction (SkMel30) [%]	cleaved PARP positive nuclei fraction (SkMel5) [%]	cleaved PARP positive nuclei fraction (UACC257) [%]	cleaved PARP positive nuclei fraction (UACC62) [%]
N#CC[C@H](C1CCCC1)n1cc(-c2ncnc3[nH]ccc23)cn1 [ruxolitinib] + Cc1cc([N+](=O)[O-])ccc1NS(=O)(=O)c1cc(Cl)ccc1Cl [FH535] (first compound 1 µM, partner dose 1 µM) in the list: 93.3	14.8	70.3	57.5	130	162	149	250	80.7	56.8	32.3	93.2	148	43.8	45.9	118	87	153
N#CC[C@H](C1CCCC1)n1cc(-c2ncnc3[nH]ccc23)cn1 [ruxolitinib] + COc1ccc(-c2ccc3c(N4CCOCC4)nc(N4C[C@@H](C)O[C@@H](C)C4)nc3n2)cc1CO [KU0063794] (first compound 1 µM, partner dose 0.02 µM) in the list: 65	75.7	73.2	91.4	165	91.4	41.4	351	204	322	164	162	177	75.2	42.6	71.5	222	70.6
